Results deposited as PubChem BioAssay AID504764 (Drosophila RNAi Screening Center, 2011)

Assay: 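Knock-downs that raise or lower a Notch target reporter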 (primary screen)
Cell system: Drosophila Kc167 cells
Reagent: long dsRNA against Drosophila genes
Time to read-out: about 5 days (4 days dsRNA, then 24 h after transfection)
Treatment: transfection of constitutively active membrane-tethered Notch lacking the extracellular domain, read 24 h later
Measured: 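Firefly luciferase from an E(spl)m3 reporter with active Notch, plus control-promoter and uninduced reporter wells for normalisation; unnormalised counts, duplicate wells a and b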
Reading the numbers: induced reporter light, run 1, well a and induced reporter light, run 1, well b: higher = more light from the Notch target reporter with active Notch; control promoter light, run 1, well a and control promoter light, run 1, well b: higher = more light from the viral control promoter (cell number, transfection, viability); uninduced reporter light, run 1, well a: higher = more light from the Notch target reporter without active Notch
Active means: 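Hit if the duplicate-averaged log2 ratio of induced to control-promoter light gives a plate-wise z beyond ±2, or induced to uninduced beyond ±1.8; weak-control or discordant-duplicate wells dropped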
Calls: active = modifier hit (raised or lowered Notch signal); inactive = not a hit
The deposit covers about 22,000 reagents; this is a random part of those with a known target gene and a result. In the full data, 403 (1.9%) got an active call. 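Unnormalised raw counts per well; ratio z-scores behind the hit calls and whether each hit raises or lowers signal are not deposited.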 The record does not give: the amount of reagent.

The first 2 entries as a preview:
Pkc98E (Protein C kinase 98E) [DRSC16791] — induced reporter light, run 1, well a: 2.33e5; induced reporter light, run 1, well b: 1.95e5; control promoter light, run 1, well a: 3.23e5; control promoter light, run 1, well b: 3.27e5; uninduced reporter light, run 1, well a: 16675; Call: inactive
PIG-Wa (Phosphatidylinositol glycan anchor biosynthesis class W a) [DRSC00728] — induced reporter light, run 1, well a: 1.26e5; induced reporter light, run 1, well b: 1.11e5; control promoter light, run 1, well a: 1.15e5; control promoter light, run 1, well b: 79030; uninduced reporter light, run 1, well a: 10435; Call: inactive

Main list, repeating the preview:
Pkc98E (Protein C kinase 98E) [DRSC16791] — induced reporter light, run 1, well a: 2.33e5; induced reporter light, run 1, well b: 1.95e5; control promoter light, run 1, well a: 3.23e5; control promoter light, run 1, well b: 3.27e5; uninduced reporter light, run 1, well a: 16675; Call: inactive
PIG-Wa (Phosphatidylinositol glycan anchor biosynthesis class W a) [DRSC00728] — induced reporter light, run 1, well a: 1.26e5; induced reporter light, run 1, well b: 1.11e5; control promoter light, run 1, well a: 1.15e5; control promoter light, run 1, well b: 79030; uninduced reporter light, run 1, well a: 10435; Call: inactive
CG14965 [DRSC08424] — induced reporter light, run 1, well a: 1.24e5; induced reporter light, run 1, well b: 1.02e5; control promoter light, run 1, well a: 1.08e5; control promoter light, run 1, well b: 27320; uninduced reporter light, run 1, well a: 10928; Call: inactive
ort (ora transientless) [DRSC16240] — induced reporter light, run 1, well a: 1.80e5; induced reporter light, run 1, well b: 1.98e5; control promoter light, run 1, well a: 2.25e5; control promoter light, run 1, well b: 2.32e5; uninduced reporter light, run 1, well a: 15525; Call: inactive
CG32628 (retired record) [DRSC19405] — induced reporter light, run 1, well a: 40435; induced reporter light, run 1, well b: 44970; control promoter light, run 1, well a: 62110; control promoter light, run 1, well b: 38390; uninduced reporter light, run 1, well a: 2975; Call: inactive
gpp (grappa) [DRSC12515] — induced reporter light, run 1, well a: 72905; induced reporter light, run 1, well b: 75275; control promoter light, run 1, well a: 34500; control promoter light, run 1, well b: 44535; uninduced reporter light, run 1, well a: 6818; Call: inactive
gpp (grappa) [DRSC12516] — induced reporter light, run 1, well a: 34870; induced reporter light, run 1, well b: 54425; control promoter light, run 1, well a: 35430; control promoter light, run 1, well b: 23545; uninduced reporter light, run 1, well a: 7080; Call: inactive
CG13532 [DRSC04174] — induced reporter light, run 1, well a: 1.67e5; induced reporter light, run 1, well b: 1.53e5; control promoter light, run 1, well a: 1.28e5; control promoter light, run 1, well b: 1.64e5; uninduced reporter light, run 1, well a: 10970; Call: inactive
Nup50 (Nucleoporin 50kD) [DRSC06827] — induced reporter light, run 1, well a: 2.04e5; induced reporter light, run 1, well b: 1.91e5; control promoter light, run 1, well a: 1.75e5; control promoter light, run 1, well b: 1.59e5; uninduced reporter light, run 1, well a: 12010; Call: inactive
gcm (glial cells missing) [DRSC03536] — induced reporter light, run 1, well a: 1.22e5; induced reporter light, run 1, well b: 1.60e5; control promoter light, run 1, well a: 82240; control promoter light, run 1, well b: 1.03e5; uninduced reporter light, run 1, well a: 19490; Call: inactive
CG6962 [DRSC16153] — induced reporter light, run 1, well a: 58595; induced reporter light, run 1, well b: 68440; control promoter light, run 1, well a: 38895; control promoter light, run 1, well b: 44385; uninduced reporter light, run 1, well a: 5660; Call: inactive
RhoGAP100F (Rho GTPase activating protein at 100F) [DRSC15409] — induced reporter light, run 1, well a: 1.79e5; induced reporter light, run 1, well b: 2.13e5; control promoter light, run 1, well a: 2.85e5; control promoter light, run 1, well b: 2.84e5; uninduced reporter light, run 1, well a: 14042; Call: inactive
